Experimental data: the supplement of paper PMC7752906
Where a name gives a salt, the structure may show the parent alone. Some of the results follow. Single values are uncertain here, since repeats match poorly.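 Test system: Schistosoma mansoni schistosomula, roughly 40 per well, imaged in bright field over time and compared with wells given 0.1% DMSO. Distance read-out: the paper calls a drug a hit when its Mahalanobis distance is at least 2.47, three standard deviations above the DMSO control mean. Degeneracy is the share of worms classified opaque.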

These molecules were tested on Schistosoma mansoni schistosomula (assay: degeneracy (percent of somules classified as degenerate/opaque); higher = more parasite degeneration/death; extreme values may be limits of the assay). Conditions: 10 µM; 72 h.

**Q.** `O=C1Nc2ccc(Cl)cc2C(c2ccccc2Cl)=NC1O` (stereo not drawn) [Lorazepam] was tested. Which degeneracy did it give?
**A.** 4.44%

**Q.** How did the degeneracy turn out when `NCc1cccnc1` [Picolamine] was run?
**A.** 0%

**Q.** Which degeneracy does the source give for `CC(N)Cc1ccc(O)cc1` (stereo not drawn) [Hydroxyamphetamine Hydrobromide] here?
**A.** 21.1%

**Q.** Which degeneracy does the source give for `O=[N+]([O-])C(Br)(CO)CO` [Bronopol] here?
**A.** 100%

**Q.** With `CN1[C@@H]2C[C@@H](OC(=O)[C@H](CO)c3ccccc3)C[C@H]1[C@@H]1O[C@@H]12` [Scopolamine] as the molecule, how does the degeneracy read?
**A.** 10.7%

**Q.** How did the degeneracy turn out when `CN[C@@H](C)[C@@H](O)c1ccccc1` [Pseudoephedrine] was run?
**A.** 7.5%

**Q.** With `CN1C[C@H](C(=O)N[C@]2(C)O[C@@]3(O)[C@@H]4CCCN4C(=O)[C@H](Cc4ccccc4)N3C2=O)C=C2c3cccc4[nH]cc(c34)C[C@H]21` [Ergotamine] as the molecule, how does the degeneracy read?
**A.** 0%

**Q.** `O=c1n(Cl)c(=O)n(Cl)c(=O)n1Cl` [Symclosene] was tested. Which degeneracy did it give?
**A.** 20%

**Q.** For `C=CCN1CC[C@]23c4c5ccc(O)c4O[C@H]2C(=O)CC[C@@]3(O)[C@H]1C5` [Naloxone], which degeneracy is on record?
**A.** 3.57%

**Q.** `C=CCN1CC[C@]23c4c5ccc(O)c4O[C@H]2C(=O)CC[C@@]3(O)[C@H]1C5` [Naloxone Hydrochloride] was tested. Which degeneracy did it give?
**A.** 10.3%

**Q.** Which degeneracy does the source give for `CC[C@@H](C(=O)[C@@H](C)[C@@H](O)[C@H](C)[C@@H]1O[C@@H]([C@@H](CC)C(=O)O)CC[C@@H]1C)[C@H]1O[C@]2(C=C[C@@H](O)[C@]3(CC[C@@](C)([C@H]4CC[C@](O)(CC)[C@H](C)O4)O3)O2)[C@H](C)C[C@@H]1C` [Salinomycin, Sodium] here?
**A.** 100%

**Q.** With `CCC1(c2ccccc2)C(=O)NC(=O)NC1=O` [Phenobarbital] as the molecule, how does the degeneracy read?
**A.** 6.67%

**Q.** With `Cc1cccc(C)c1NC(=O)CN1CCCC1=O` [Nefiracetam] as the molecule, how does the degeneracy read?
**A.** 9.09%

**Q.** `C[C@]12CCC(=O)C=C1C=C[C@@H]1[C@@H]2CC[C@@]2(C)[C@H]1CC[C@@]2(O)CCC(=O)O` [Canrenoic Acid, Potassium Salt] was tested. Which degeneracy did it give?
**A.** 8.7%

**Q.** With `S=C=NCc1ccccc1` [Benzyl Isothiocyanate] as the molecule, how does the degeneracy read?
**A.** 100%

**Q.** `O=c1c2ccccc2[se]n1-c1ccccc1` [Ebselen] was tested. Which degeneracy did it give?
**A.** 100%

**Q.** With `CC(=O)O[C@H]1C[C@@H]2CC[C@@H]3[C@H](CC[C@@]4(C)[C@H]3C[C@H]([N+]3(C)CCCCC3)[C@@H]4OC(C)=O)[C@@]2(C)C[C@@H]1[N+]1(C)CCCCC1` [Pancuronium Bromide] as the molecule, how does the degeneracy read?
**A.** 3.85%

**Q.** How did the degeneracy turn out when `CC1C=CC=CCCC=CC=CC=CC=CC(OC2OC(C)C(O)C(N)C2O)CC2OC(O)(CC(O)C(O)CCC(O)CC(O)CC(O)CC(=O)OC(C)C(C)C1O)CC(O)C2C(=O)O` (stereo not drawn) [Nystatin] was run?
**A.** 4.55%

**Q.** `C[C@]12CC[C@H](O)CC1=CC[C@@H]1[C@@H]2CC[C@]2(C)C(=O)CC[C@@H]12` [Prasterone] was tested. Which degeneracy did it give?
**A.** 7.69%

**Q.** With `COc1cc2c(c(OC)c1OC)-c1ccc(OC)c(=O)cc1[C@@H](NC(C)=O)CC2` [colchicine] as the molecule, how does the degeneracy read?
**A.** 5.26%

**Q.** `CC[C@@H](CO)NC(=O)[C@@H]1C=C2c3cccc4c3c(cn4C)C[C@H]2N(C)C1` [Methysergide Maleate] was tested. Which degeneracy did it give?
**A.** 13.6%

**Q.** With `c1ccc2c(c1)OCC(C1=NCCN1)O2` (stereo not drawn) [Idazoxan Hydrochloride] as the molecule, how does the degeneracy read?
**A.** 12.9%

**Q.** Which degeneracy does the source give for `CC(C)c1cccc(C(C)C)c1O` [Propofol] here?
**A.** 100%

**Q.** For `CN1C[C@H](CNC(=O)OCc2ccccc2)C[C@@H]2c3cccc4c3c(cn4C)C[C@H]21` [Metergoline], which degeneracy is on record?
**A.** 100%

**Q.** Which degeneracy does the source give for `Oc1ccc2c3c1O[C@H]1[C@@H](O)CC[C@@]4(O)[C@@H](C2)N(CC2CCC2)CC[C@]314` [Nalbuphine] here?
**A.** 16.2%

**Q.** For `NCC1(CC(=O)O)CCCCC1` [Gabapentin], which degeneracy is on record?
**A.** 3.03%

**Q.** How did the degeneracy turn out when `O=[N+]([O-])O[C@H]1CO[C@H]2[C@@H]1OC[C@H]2O[N+](=O)[O-]` [Isosorbide Dinitrate] was run?
**A.** 4.17%

**Q.** With `CC(N)C(O)c1ccccc1` (stereo not drawn) [Phenylpropanolamine] as the molecule, how does the degeneracy read?
**A.** 0%

**Q.** Which degeneracy does the source give for `CCCCOC(=O)c1ccccc1C(=O)OCCCC` [Dibutyl Phthalate] here?
**A.** 6.06%

**Q.** Which degeneracy does the source give for `O=C(O)c1nn(Cc2ccc(Cl)cc2Cl)c2ccccc12` [Lonidamine] here?
**A.** 13.3%

**Q.** With `COc1ccc2c(c1OC)C(=O)O[C@@H]2[C@H]1c2cc3c(cc2CCN1C)OCO3` [Hydrastine (1r, 9s)] as the molecule, how does the degeneracy read?
**A.** 4.17%

**Q.** How did the degeneracy turn out when `Cc1nnc2n1-c1ccc(Cl)cc1C(c1ccccc1)=NC2` [Alprazolam] was run?
**A.** 10.6%

**Q.** For `C[C@@H]1CN([C@H]2CC[C@](C#N)(c3ccc(F)cc3)CC2)CC[C@]1(C(=O)O)c1ccccc1` [Levocabastine hcl], which degeneracy is on record?
**A.** 3.33%

**Q.** For `CCC1(CC)C(=O)NC(=O)NC1=O` [Barbital], which degeneracy is on record?
**A.** 2.86%

**Q.** Which degeneracy does the source give for `CCC(=O)O[C@H]1CC[C@H]2[C@@H]3CCC4=CC(=O)CC[C@]4(C)[C@H]3CC[C@]12C` [Testosterone Propionate] here?
**A.** 40.6%

**Q.** How did the degeneracy turn out when `COc1ccc(OC)c(C(O)C(C)N)c1` (stereo not drawn) [Methoxamine] was run?
**A.** 7.69%

**Q.** `CCCC(C)(COC(N)=O)COC(=O)NC(C)C` (stereo not drawn) [Carisoprodol] was tested. Which degeneracy did it give?
**A.** 7.14%

**Q.** Which degeneracy does the source give for `COC(C)(C)CCC[C@H](C)C/C=C/C(C)=C/C(=O)OC(C)C` [Methoprene (s)] here?
**A.** 2.22%

**Q.** For `CC(O)CN1CCN(CC(=O)[O-])CCN(CC(=O)[O-])CCN(CC(=O)[O-])CC1.[Gd+3]` (stereo not drawn) [Gadoteridol], which degeneracy is on record?
**A.** 5.13%

**Q.** For `N[C@@H]1C[C@H]1c1ccccc1.N[C@H]1C[C@@H]1c1ccccc1` [Tranylcypromine], which degeneracy is on record?
**A.** 100%

**Q.** With `C#CC(C)(O)CC` (stereo not drawn) [Meparfylon] as the molecule, how does the degeneracy read?
**A.** 0%

**Q.** `CCOP(=S)(OCC)Oc1ccc2c(C)c(Cl)c(=O)oc2c1` [Coumophos] was tested. Which degeneracy did it give?
**A.** 25%

**Q.** How did the degeneracy turn out when `CCC(=O)O[C@](Cc1ccccc1)(c1ccccc1)[C@H](C)CN(C)C` [Propoxyphene] was run?
**A.** 2.63%

**Q.** Which degeneracy does the source give for `C=C1C[C@@H]2[C@H](CC[C@]3(C)C(=O)CC[C@@H]23)[C@@]2(C)C=CC(=O)C=C12` [Exemestane] here?
**A.** 100%

**Q.** For `CCOc1cc(C=O)ccc1O` [Ethyl Vanillin], which degeneracy is on record?
**A.** 5.71%

**Q.** With `C[C@]12C/C(=C/O)C(=O)C[C@@H]1CC[C@@H]1[C@@H]2CC[C@@]2(C)[C@H]1CC[C@]2(C)O` [Oxymetholone] as the molecule, how does the degeneracy read?
**A.** 6%

**Q.** `CCOP(=S)(OCC)Oc1nc(Cl)c(Cl)cc1Cl` [Chlorpyrifos] was tested. Which degeneracy did it give?
**A.** 5%

**Q.** Which degeneracy does the source give for `CNC(=O)Oc1ccccc1OC(C)C` [Propoxur] here?
**A.** 5.88%

**Q.** For `CC(=O)NC1CCSC1=O` (stereo not drawn) [Citiolone], which degeneracy is on record?
**A.** 13.3%

**Q.** `c1ccc2c(c1)sc1ccccc12` [Dibenzothiophene] was tested. Which degeneracy did it give?
**A.** 5.56%

**Q.** `C[C@]12CCC(=O)C=C1CC[C@@H]1[C@@H]2CC[C@@]2(C)[C@H]1CC[C@]2(C)O` [Methyltestosterone] was tested. Which degeneracy did it give?
**A.** 14.3%

**Q.** How did the degeneracy turn out when `CC(C)C[C@H]1C(=O)N2CCC[C@H]2[C@]2(O)O[C@](NC(=O)[C@@H]3C=C4c5cccc6[nH]c(Br)c(c56)C[C@H]4N(C)C3)(C(C)C)C(=O)N12` [Bromocriptine Mesylate] was run?
**A.** 61.9%

**Q.** How did the degeneracy turn out when `CNCC(O)c1ccc(O)cc1` (stereo not drawn) [Oxedrine] was run?
**A.** 6.9%

**Q.** For `CCOP(=S)(OCC)Oc1cc(C)nc(C(C)C)n1` [Diazinon, Dimpylate], which degeneracy is on record?
**A.** 90.9%

**Q.** `CNC(C)(C)Cc1ccccc1` [Mephentermine Sulfate] was tested. Which degeneracy did it give?
**A.** 3.45%

**Q.** How did the degeneracy turn out when `C[C@]12CCC(=O)C(O)=C1CC[C@@H]1[C@@H]2CC[C@]2(C)C(=O)CC[C@@H]12` [Formestane] was run?
**A.** 17.3%

**Q.** With `CN(C)C(=O)Oc1cccc([N+](C)(C)C)c1` [Neostigmine Bromide] as the molecule, how does the degeneracy read?
**A.** 2.94%

**Q.** Which degeneracy does the source give for `CN1[C@H]2C[C@H](OC(=O)[C@H](CO)c3ccccc3)C[C@@H]1[C@@H](O)C2` [Anisodamine Hydrobromide] here?
**A.** 0%

**Q.** How did the degeneracy turn out when `CN1CCc2cc3c(cc2C1O)OCO3` (stereo not drawn) [Hydrastinine Hydrochloride] was run?
**A.** 0%

**Q.** `NP(N)(=O)NC(=O)c1ccc(F)cc1` [Flurofamide] was tested. Which degeneracy did it give?
**A.** 2.94%

**Q.** `O=c1[nH]c2ccccc2n1C1CCN(CCCC(c2ccc(F)cc2)c2ccc(F)cc2)CC1` [pimozide] was tested. Which degeneracy did it give?
**A.** 100%

**Q.** Which degeneracy does the source give for `CN(C)C(=O)Oc1ccc[n+](C)c1` [Pyridostigmine Bromide] here?
**A.** 8.16%

**Q.** Which degeneracy does the source give for `C#CCN(C)[C@H](C)Cc1ccccc1` [Selegiline] here?
**A.** 0%

**Q.** `NCCCNCCSP(=O)(O)O` [Amifostine] was tested. Which degeneracy did it give?
**A.** 0%

**Q.** With `NC(=O)CN1CCCC1=O` [Piracetam] as the molecule, how does the degeneracy read?
**A.** 0%

**Q.** With `O=c1[nH]c(=O)n(Cl)c(=O)n1Cl` [Troclosene Potassium] as the molecule, how does the degeneracy read?
**A.** 7.14%

**Q.** With `CC(C)c1c(CN(C)C(C)Cc2ccccc2)n(C)n(-c2ccccc2)c1=O` (stereo not drawn) [Famprofazone] as the molecule, how does the degeneracy read?
**A.** 32.3%

**Q.** How did the degeneracy turn out when `C=CCN1C[C@H](C(=O)N(CCCN(C)C)C(=O)NCC)C[C@@H]2c3cccc4[nH]cc(c34)C[C@H]21` [Cabergoline] was run?
**A.** 15.6%

**Q.** Which degeneracy does the source give for `Clc1ccc(C(OCCN2CCCCC2)c2ccccc2)cc1` (stereo not drawn) [Cloperastine Hydrochloride] here?
**A.** 100%

**Q.** How did the degeneracy turn out when `C[C@@H](CO)NC(=O)[C@@H]1C=C2c3cccc4[nH]cc(c34)C[C@H]2N(C)C1` [Ergonovine Maleate] was run?
**A.** 19.4%

**Q.** `C[C@@H](CO)NC(=O)[C@@H]1C=C2c3cccc4[nH]cc(c34)C[C@H]2N(C)C1` [Ergonovine] was tested. Which degeneracy did it give?
**A.** 26.7%

**Q.** For `O=C1CN=C(c2ccccc2)c2cc([N+](=O)[O-])ccc2N1` [Nitrazepam], which degeneracy is on record?
**A.** 7.14%

**Q.** How did the degeneracy turn out when `C[C@@H]1CC[C@H]2[C@@H](C)C(=O)O[C@@H]3O[C@@]4(C)CC[C@@H]1[C@]32OO4` [Artemisinin] was run?
**A.** 6.67%

**Q.** With `COc1cc([C@@H]2c3cc4c(cc3[C@H](O)[C@H]3COC(=O)[C@H]23)OCO4)cc(OC)c1OC` [podofilox] as the molecule, how does the degeneracy read?
**A.** 0%

**Q.** Which degeneracy does the source give for `CC(CC(C(N)=O)(c1ccccc1)c1ccccc1)N(C)C` (stereo not drawn) [Aminopentamide Sulfate] here?
**A.** 0%

**Q.** With `OC[C@@H](O)[C@H]1O[C@@H]2O[C@H](C(Cl)(Cl)Cl)O[C@@H]2[C@H]1O` [Chloralose] as the molecule, how does the degeneracy read?
**A.** 3.12%

**Q.** How did the degeneracy turn out when `C[N+]12CCC(CC1)C(OC(=O)C(O)(c1ccccc1)c1ccccc1)C2` (stereo not drawn) [Clidinium Bromide] was run?
**A.** 0%

**Q.** With `CO[C@]12C[C@@H](COC(=O)c3cncc(Br)c3)CN(C)[C@@H]1Cc1cn(C)c3cccc2c13` [Nicergoline] as the molecule, how does the degeneracy read?
**A.** 35.3%
